# Literature values as cited in patent publication US20220202698A1, “EXTENDED RELEASE PHARMACEUTICAL COMPOSITIONS OF RIOCIGUAT” (Jubilant Pharma Holdings Inc., priority 2020, published 2022).
# The name of at least one read-out is uncertain.
# Conditions: BCS classification
smiles,measurement,value
"COC(=O)N(C)c1c(N)nc(-c2nn(Cc3ccccc3F)c3ncccc23)nc1N [Riociguat, methyl 4,6-diamino-2-[1-(2-fluorobenzyl)-1H-pyrazolo[3,4-b]pyridin-3-yl]-5-pyrimidinyl(methyl)carbamate]",Permeability,high permeability
